This note sets out measurements from patent US9018172B2 (Massachusetts Institute of Technology, priority 2012, dated 2015).

A short description of the data set: general procedure: peptide synthesis; MBHA resin (Anaspec); HBTU.

For the setting “coupling step”, “stapled [Val^1-Leu^22]-[Cys^23-Gly^40]-[Cys^41-Lys^58] peptide” returned a step yield of 34%.
stapled [Val^1-Lys^58] peptides: the step yield (late stage modification step) was 78.3%.
